Data source: PubChem BioAssay AID743454 (Peter MacCallum Cancer Centre, 2014)
Test: 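Knock-downs lowering viability or raising caspase 3/7 activity in vorinostat-treated resistant cells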 (primary screen). Cells: human HCT116-VR colon cancer cells, selected for vorinostat resistance. Knock-down reagent: siRNA pool against human genes, 40 nM siRNA pool. Timing: vorinostat for 24 h, read-out about 72 h after transfection. Challenge: vorinostat at 2.5 µM final. Measured: 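Cell viability by CellTiter-Fluor and caspase 3/7 activity by luminescence, each scaled to mock wells per plate, duplicates averaged, then robust z-scored over all plates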. Reading the numbers: viability robust z-score: higher = more viable cells than screen typical; caspase robust z-score: higher = more caspase 3/7 activity than screen typical. Hit rule: 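a knock-down is a hit when classed RV1 or RV2 for lowered viability, or CA1 or CA2 for caspase activation; those lethal without drug were dropped; hits were retested singly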.
The deposit covers about 18,000 reagents; this is an unselected part. 450 of all reagents (2.5%) were called active. 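Single biological run; no consistent viability z cut-off exists, so the class columns, not z-scores, define the calls.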 A number with no mark means an inactive call.

NEFH
- viability hit class: no change
- caspase hit class: no change
- viability robust z-score: -0.21
- caspase robust z-score: -0.52

SAFB
- viability hit class: no change
- caspase hit class: no change
- viability robust z-score: -2.6
- caspase robust z-score: 0.2

IYD
- viability hit class: no change
- caspase hit class: no change
- viability robust z-score: 0.88
- caspase robust z-score: -0.14

LASP1
- viability hit class: no change
- caspase hit class: no change
- viability robust z-score: -0.9
- caspase robust z-score: -0.28

C11orf42
- viability hit class: no change
- caspase hit class: no change
- viability robust z-score: -0.04
- caspase robust z-score: 0.5

CDAN1
- viability hit class: no change
- caspase hit class: no change
- viability robust z-score: 1.9
- caspase robust z-score: -0.21

USP43
- viability hit class: no change
- caspase hit class: no change
- viability robust z-score: -0.5
- caspase robust z-score: 0.08

SPRR2A
- viability hit class: no change
- caspase hit class: no change
- viability robust z-score: -1.26
- caspase robust z-score: -0.31

Next part, starting with the last 2 of the part before.
USP43
- viability hit class: no change
- caspase hit class: no change
- viability robust z-score: -0.5
- caspase robust z-score: 0.08

SPRR2A
- viability hit class: no change
- caspase hit class: no change
- viability robust z-score: -1.26
- caspase robust z-score: -0.31

H3C4
- viability hit class: no change
- caspase hit class: no change
- viability robust z-score: -1.25
- caspase robust z-score: -0.21

DLGAP1-AS1
- viability hit class: no change
- caspase hit class: no change
- viability robust z-score: 1.4
- caspase robust z-score: 0.3

TTC13
- viability hit class: no change
- caspase hit class: no change
- viability robust z-score: -0.06
- caspase robust z-score: 1.04

SCAP
- viability hit class: no change
- caspase hit class: no change
- viability robust z-score: 0.68
- caspase robust z-score: 0.12
